# From the supplement of paper PMC8728848
# The other results are listed elsewhere or left out.
# B1: GroEL (Clostridium difficile), Q18CT5 (protein)
# chain: MAKEIKFSEETRRALEAGVNKLADTVKVTLGPKGRNVILDKKFGSPLITNDGVTIAKEIELEDRFENMGAQLVKEVATKTNDVAGDGTTTATVLAQAIIREGLKNVTAGANPILLRKGIQKAVTVAVEELKNQSRIVETQEAISQVASISAGDEEVGKLIAEAMEIVGKDGVITVEESQTMNTELDAVEGMQFDRGFVSAYMVTDVDKMEAVLNDPYILITDKKISNIQELLPVLEQIVQQGKKLLIIAEDVEGEALSTLVVNKLRGTFDVVAVKAPGFGDRRKEMLQDIAILTGAQVISEELGYDLKEADLSMLGRASSVKVTKESTTIVDGSGDKKAIEDRVTQIKHQVEQTTSDFDREKLMERLAKLAGGVAVVKVGAATEVELKERKLRIEDALNATRAAVEEGIVAGGGTAFVSVIPAIGTLIESLEGEVKLGAQIVKKALEEPLRQIAINAGLEGAVIVQNVVNSEAETGFDALNEKYVNMIEAGIVDPTKVSRSALQNAASIASTFLTTEAAVADLPEKEDAGMPGMGGGMPGMM
# Assays:
# Assay in all cases: glycan array binding signal (z-score within array); higher = stronger binding
# Conditions in all cases: glycan notation: IUPAC condensed, linker removed
# [1] = molecular target: Fuc(a1-2)Gal(b1-4)GlcNAc(b1-3)Gal(b1-4)GlcNAc(b1-3)Gal(b1-4)GlcNAc
# How it was run: (§1)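 Glycan array data were curated from 3228 arrays in the Consortium for Functional Glycomics database and kept only where the protein sequence was available. Glycan names were converted to IUPAC-condensed notation, and columns mapping to the same glycan were averaged. The binding signal is a within-array Z-score, averaged across arrays of the same protein sequence at different concentrations or buffers and across linkers. Negative Z-scores can be read as non-binding.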
# [2] = molecular target: Fuc(a1-2)Gal(b1-4)GlcNAc(b1-3)GalNAc
# How it was run: as §1
# [3] = molecular target: Fuc(a1-2)Gal(b1-4)GlcNAc(b1-3)[Fuc(a1-2)Gal(b1-4)GlcNAc(b1-6)]GalNAc
# How it was run: as §1
# [4] = molecular target: Fuc(a1-2)Gal(b1-4)GlcNAc(b1-3)[Fuc(a1-3)[Gal(b1-4)]GlcNAc(b1-6)]Gal(b1-4)Glc
# How it was run: as §1
# [5] = molecular target: Fuc(a1-2)Gal(b1-4)GlcNAc(b1-6)GalNAc
# How it was run: as §1
# [6] = molecular target: Fuc(a1-2)Gal(b1-4)GlcNAc6S
# How it was run: as §1
# [7] = molecular target: Fuc(a1-2)Gal(b1-4)[Fuc(a1-3)]GlcNAc
# How it was run: as §1
# [8] = molecular target: Fuc(a1-2)Gal(b1-4)[Fuc(a1-3)]GlcNAc(b1-2)Man(a1-3)[Fuc(a1-2)Gal(b1-4)[Fuc(a1-3)]GlcNAc(b1-2)Man(a1-6)]Man(b1-4)GlcNAc(b1-4)[Fuc(a1-6)]GlcNAc
# How it was run: as §1
# [9] = molecular target: Fuc(a1-2)Gal(b1-4)[Fuc(a1-3)]GlcNAc(b1-2)[Fuc(a1-2)Gal(b1-4)[Fuc(a1-3)]GlcNAc(b1-4)]Man(a1-3)[Fuc(a1-2)Gal(b1-4)[Fuc(a1-3)]GlcNAc(b1-2)Man(a1-6)]Man(b1-4)GlcNAc(b1-4)GlcNAc
# How it was run: as §1
# [10] = molecular target: Fuc(a1-2)Gal(b1-4)[Fuc(a1-3)]GlcNAc(b1-3)Gal(b1-4)[Fuc(a1-3)]GlcNAc
# How it was run: as §1
# [11] = molecular target: Fuc(a1-2)Gal(b1-4)[Fuc(a1-3)]GlcNAc(b1-3)Gal(b1-4)[Fuc(a1-3)]GlcNAc(b1-3)Gal(b1-4)[Fuc(a1-3)]GlcNAc
# How it was run: as §1
# [12] = molecular target: Fuc(a1-2)Gal(b1-4)[Fuc(a1-3)]GlcNAc(b1-3)GalNAc
# How it was run: as §1
# [13] = molecular target: Fuc(a1-2)Gal(b1-4)[Fuc(a1-3)]GlcNAc(b1-3)[Neu5Ac(a2-6)Gal(b1-4)GlcNAc(b1-6)]Gal(b1-4)Glc
# How it was run: as §1
# [14] = molecular target: Fuc(a1-2)Gal3S(b1-4)GlcNAc
# How it was run: as §1
# [15] = molecular target: Fuc(a1-2)Gal6S(b1-3)GlcNAc
# How it was run: as §1
# [16] = molecular target: Fuc(a1-2)Gal6S(b1-3)GlcNAc6S
# How it was run: as §1
# Fuc(a1-2)Gal6S(b1-4)Glc = molecular target: Fuc(a1-2)Gal6S(b1-4)Glc
# How it was run: as §1
# [17] = molecular target: Fuc(a1-2)Gal6S(b1-4)Glc6S
# How it was run: as §1
# Fuc(a1-2)[Gal(a1-3)]Gal = molecular target: Fuc(a1-2)[Gal(a1-3)]Gal
# How it was run: as §1
# [18] = molecular target: Fuc(a1-2)[Gal(a1-3)]Gal(b1-3)GalNAc
# How it was run: as §1
# [19] = molecular target: Fuc(a1-2)[Gal(a1-3)]Gal(b1-3)GalNAc(b1-3)Gal(a1-4)Gal(b1-4)Glc
# How it was run: as §1
# [20] = molecular target: Fuc(a1-2)[Gal(a1-3)]Gal(b1-3)GlcNAc
# How it was run: as §1
# [21] = molecular target: Fuc(a1-2)[Gal(a1-3)]Gal(b1-3)GlcNAc(b1-2)Man(a1-3)[Fuc(a1-2)[Gal(a1-3)]Gal(b1-3)GlcNAc(b1-2)Man(a1-6)]Man(b1-4)GlcNAc(b1-4)GlcNAc
# How it was run: as §1
# [22] = molecular target: Fuc(a1-2)[Gal(a1-3)]Gal(b1-3)GlcNAc(b1-2)Man(a1-3)[Fuc(a1-2)[Gal(a1-3)]Gal(b1-3)GlcNAc(b1-2)Man(a1-6)]Man(b1-4)GlcNAc(b1-4)[Fuc(a1-6)]GlcNAc
# How it was run: as §1
# [23] = molecular target: Fuc(a1-2)[Gal(a1-3)]Gal(b1-3)GlcNAc(b1-3)GalNAc
# How it was run: as §1
# [24] = molecular target: Fuc(a1-2)[Gal(a1-3)]Gal(b1-3)GlcNAc(b1-6)GalNAc
# How it was run: as §1
# [25] = molecular target: Fuc(a1-2)[Gal(a1-3)]Gal(b1-4)Glc
# How it was run: as §1
# [26] = molecular target: Fuc(a1-2)[Gal(a1-3)]Gal(b1-4)GlcNAc
# How it was run: as §1
# [27] = molecular target: Fuc(a1-2)[Gal(a1-3)]Gal(b1-4)GlcNAc(b1-2)Man
# How it was run: as §1
# [28] = molecular target: Fuc(a1-2)[Gal(a1-3)]Gal(b1-4)GlcNAc(b1-2)Man(a1-3)[Fuc(a1-2)[Gal(a1-3)]Gal(b1-4)GlcNAc(b1-2)Man(a1-6)]Man(b1-4)GlcNAc(b1-4)GlcNAc
# How it was run: as §1
binder,measurement,setting,value
B1,glycan array binding signal (z-score),[1],0.143
same,glycan array binding signal (z-score),[2],-0.559
same,glycan array binding signal (z-score),[3],-1.3
same,glycan array binding signal (z-score),[4],-0.156
same,glycan array binding signal (z-score),[5],-1.24
same,glycan array binding signal (z-score),[6],0.468
same,glycan array binding signal (z-score),[7],-0.392
same,glycan array binding signal (z-score),[8],0.707
same,glycan array binding signal (z-score),[9],-0.388
same,glycan array binding signal (z-score),[10],-0.245
same,glycan array binding signal (z-score),[11],1.87
same,glycan array binding signal (z-score),[12],-1.12
same,glycan array binding signal (z-score),[13],1.13
same,glycan array binding signal (z-score),[14],0.86
same,glycan array binding signal (z-score),[15],1.25
same,glycan array binding signal (z-score),[16],-0.399
same,glycan array binding signal (z-score),Fuc(a1-2)Gal6S(b1-4)Glc,-1.09
same,glycan array binding signal (z-score),[17],0.216
same,glycan array binding signal (z-score),Fuc(a1-2)[Gal(a1-3)]Gal,-0.676
same,glycan array binding signal (z-score),[18],0.203
same,glycan array binding signal (z-score),[19],-0.648
same,glycan array binding signal (z-score),[20],-0.57
same,glycan array binding signal (z-score),[21],-1.07
same,glycan array binding signal (z-score),[22],0.402
same,glycan array binding signal (z-score),[23],-1.2
same,glycan array binding signal (z-score),[24],-1.16
same,glycan array binding signal (z-score),[25],-0.135
same,glycan array binding signal (z-score),[26],0.601
same,glycan array binding signal (z-score),[27],-0.294
same,glycan array binding signal (z-score),[28],0.755
